Experimental data from PubChem BioAssay AID2810 (NMMLSC, 2010).
The list shows a part of the results.

Experiment: modulators of CD8 T cell-vesicle binding, confirmation, cherry-picked primary hits, two concentrations (AID 2810);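 further: lower values mean blocking of vesicle binding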;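 on percent response (vesicle binding): ratio of mean FL2 vesicle stain of CD8+ cells to that row's control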
Conditions: 2C CD8+ T cell-vesicle binding, flow cytometry; for double positive events: CD8+/vesicle+ events
[1] = at 15.4 µM, stronger effect = lower value

SMILES	double positive events (at 7.7 µM)	double positive events [1]	percent response (vesicle binding) (at 7.7 µM)
C[N+]1=C2C=CC=CC=C2SC12C([N+](=O)[O-])=CC([N+](=O)[O-])=C[C-]2[N+](=O)[O-] (centres undefined)	32.9%	28.1%	751%
CCOC(=O)c1ccc(NP(C)(=O)Oc2ccccc2)cc1 (centres undefined)	20.8%	14.3%	296%
COc1ccccc1OP(C)(=O)Nc1c(C)cccc1C (centres undefined)	24.3%	12.3%	385%
